# ± gives the standard deviation of the averaged measurements. The list shows a part of the results, in another mix than the full data.
# The chains behind the UniProt entries cited, without tags or fusion partners. Where a name states a change or a piece, a line headed by the entry shows the natural chain unless it says otherwise.
# UniProt P40855: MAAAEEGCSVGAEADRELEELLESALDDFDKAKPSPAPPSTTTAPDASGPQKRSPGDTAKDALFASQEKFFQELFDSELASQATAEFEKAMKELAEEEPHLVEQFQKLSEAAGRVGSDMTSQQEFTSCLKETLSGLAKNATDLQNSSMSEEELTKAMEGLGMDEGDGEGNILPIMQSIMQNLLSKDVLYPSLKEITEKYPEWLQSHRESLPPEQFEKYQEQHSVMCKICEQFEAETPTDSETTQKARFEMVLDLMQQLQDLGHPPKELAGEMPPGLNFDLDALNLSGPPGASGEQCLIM
# UniProt P54277: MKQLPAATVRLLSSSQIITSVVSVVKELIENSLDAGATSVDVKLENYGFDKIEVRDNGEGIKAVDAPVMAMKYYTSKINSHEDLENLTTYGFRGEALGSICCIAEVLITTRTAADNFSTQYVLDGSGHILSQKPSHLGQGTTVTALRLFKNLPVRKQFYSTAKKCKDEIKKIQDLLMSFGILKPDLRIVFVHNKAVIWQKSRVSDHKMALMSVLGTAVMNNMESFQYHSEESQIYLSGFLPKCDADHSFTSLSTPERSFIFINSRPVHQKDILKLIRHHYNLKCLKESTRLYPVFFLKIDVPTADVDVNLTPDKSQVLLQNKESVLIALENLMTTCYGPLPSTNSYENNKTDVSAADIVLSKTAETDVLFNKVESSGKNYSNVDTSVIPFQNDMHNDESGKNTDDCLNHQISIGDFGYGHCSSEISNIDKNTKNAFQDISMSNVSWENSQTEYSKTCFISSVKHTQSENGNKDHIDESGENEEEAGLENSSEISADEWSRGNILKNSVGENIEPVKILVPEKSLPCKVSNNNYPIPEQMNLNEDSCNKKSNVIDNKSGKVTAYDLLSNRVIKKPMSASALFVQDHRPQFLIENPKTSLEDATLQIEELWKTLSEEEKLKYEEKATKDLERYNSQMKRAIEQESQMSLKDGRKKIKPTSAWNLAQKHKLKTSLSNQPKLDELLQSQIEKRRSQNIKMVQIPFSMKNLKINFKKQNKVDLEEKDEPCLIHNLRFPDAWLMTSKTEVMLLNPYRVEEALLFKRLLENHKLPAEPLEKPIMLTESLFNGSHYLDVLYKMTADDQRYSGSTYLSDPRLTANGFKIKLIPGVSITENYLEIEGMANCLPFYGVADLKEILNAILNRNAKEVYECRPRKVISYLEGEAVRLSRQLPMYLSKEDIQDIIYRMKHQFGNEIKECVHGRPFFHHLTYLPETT
# UniProt P45973, whole entry: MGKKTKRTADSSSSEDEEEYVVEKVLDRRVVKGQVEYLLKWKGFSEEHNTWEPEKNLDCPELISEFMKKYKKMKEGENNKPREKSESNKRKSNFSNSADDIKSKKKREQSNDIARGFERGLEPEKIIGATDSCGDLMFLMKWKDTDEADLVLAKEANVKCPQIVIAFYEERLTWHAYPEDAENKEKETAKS
# UniProt P49790, whole entry: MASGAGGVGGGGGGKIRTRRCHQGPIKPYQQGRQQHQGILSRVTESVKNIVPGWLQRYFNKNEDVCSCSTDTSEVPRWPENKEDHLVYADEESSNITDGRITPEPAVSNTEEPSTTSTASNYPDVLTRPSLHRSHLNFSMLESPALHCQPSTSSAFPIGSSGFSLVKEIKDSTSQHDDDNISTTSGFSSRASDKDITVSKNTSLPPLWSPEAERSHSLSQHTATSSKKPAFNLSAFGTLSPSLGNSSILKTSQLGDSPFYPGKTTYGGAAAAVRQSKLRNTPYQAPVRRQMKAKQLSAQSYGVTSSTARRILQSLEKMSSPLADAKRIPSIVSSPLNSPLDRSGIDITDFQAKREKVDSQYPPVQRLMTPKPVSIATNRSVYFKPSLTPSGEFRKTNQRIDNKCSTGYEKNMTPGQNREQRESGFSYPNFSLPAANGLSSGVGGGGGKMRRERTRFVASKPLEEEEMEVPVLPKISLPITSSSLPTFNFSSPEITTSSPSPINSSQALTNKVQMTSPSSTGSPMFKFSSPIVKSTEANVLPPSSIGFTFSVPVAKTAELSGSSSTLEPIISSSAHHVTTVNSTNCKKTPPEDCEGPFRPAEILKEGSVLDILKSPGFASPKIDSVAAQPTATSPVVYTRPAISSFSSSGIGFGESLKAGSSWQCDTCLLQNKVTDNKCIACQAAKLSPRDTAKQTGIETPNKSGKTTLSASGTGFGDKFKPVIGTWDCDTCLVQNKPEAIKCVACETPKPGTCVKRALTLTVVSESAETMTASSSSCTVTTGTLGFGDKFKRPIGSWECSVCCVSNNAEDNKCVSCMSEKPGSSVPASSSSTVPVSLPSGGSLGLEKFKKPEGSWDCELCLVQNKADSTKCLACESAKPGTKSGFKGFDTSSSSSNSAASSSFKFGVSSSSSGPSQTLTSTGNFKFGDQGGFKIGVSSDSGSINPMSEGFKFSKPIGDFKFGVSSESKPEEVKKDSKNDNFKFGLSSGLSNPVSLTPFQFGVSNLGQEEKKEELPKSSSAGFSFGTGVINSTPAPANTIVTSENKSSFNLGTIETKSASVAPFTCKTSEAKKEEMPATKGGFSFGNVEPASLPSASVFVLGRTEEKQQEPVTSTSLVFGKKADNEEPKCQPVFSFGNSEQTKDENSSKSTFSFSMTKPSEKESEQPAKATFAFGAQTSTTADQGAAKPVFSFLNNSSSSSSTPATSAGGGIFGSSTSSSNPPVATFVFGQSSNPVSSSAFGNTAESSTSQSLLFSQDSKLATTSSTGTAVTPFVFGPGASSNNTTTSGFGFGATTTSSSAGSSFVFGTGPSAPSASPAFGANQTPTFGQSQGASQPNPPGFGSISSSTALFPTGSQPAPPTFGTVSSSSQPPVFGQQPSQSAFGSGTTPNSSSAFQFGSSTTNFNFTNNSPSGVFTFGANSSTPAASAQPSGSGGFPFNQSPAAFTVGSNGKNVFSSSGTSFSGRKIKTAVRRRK
# UniProt P41440: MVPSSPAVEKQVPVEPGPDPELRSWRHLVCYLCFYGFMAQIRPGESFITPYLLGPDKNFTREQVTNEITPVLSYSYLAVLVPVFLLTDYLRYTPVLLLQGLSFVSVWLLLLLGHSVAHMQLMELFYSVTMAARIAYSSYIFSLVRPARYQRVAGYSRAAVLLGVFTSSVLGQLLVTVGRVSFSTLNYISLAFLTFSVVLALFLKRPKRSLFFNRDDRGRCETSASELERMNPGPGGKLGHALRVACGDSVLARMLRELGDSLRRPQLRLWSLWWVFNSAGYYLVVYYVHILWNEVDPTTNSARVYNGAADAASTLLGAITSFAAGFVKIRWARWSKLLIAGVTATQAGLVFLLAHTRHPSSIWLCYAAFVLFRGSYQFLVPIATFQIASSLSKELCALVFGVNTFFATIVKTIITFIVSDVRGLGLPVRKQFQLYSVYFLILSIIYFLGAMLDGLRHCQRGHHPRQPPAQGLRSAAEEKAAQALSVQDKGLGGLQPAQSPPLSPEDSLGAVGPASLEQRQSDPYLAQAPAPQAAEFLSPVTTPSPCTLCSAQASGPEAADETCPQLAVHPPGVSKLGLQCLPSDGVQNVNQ
# UniProt P53041: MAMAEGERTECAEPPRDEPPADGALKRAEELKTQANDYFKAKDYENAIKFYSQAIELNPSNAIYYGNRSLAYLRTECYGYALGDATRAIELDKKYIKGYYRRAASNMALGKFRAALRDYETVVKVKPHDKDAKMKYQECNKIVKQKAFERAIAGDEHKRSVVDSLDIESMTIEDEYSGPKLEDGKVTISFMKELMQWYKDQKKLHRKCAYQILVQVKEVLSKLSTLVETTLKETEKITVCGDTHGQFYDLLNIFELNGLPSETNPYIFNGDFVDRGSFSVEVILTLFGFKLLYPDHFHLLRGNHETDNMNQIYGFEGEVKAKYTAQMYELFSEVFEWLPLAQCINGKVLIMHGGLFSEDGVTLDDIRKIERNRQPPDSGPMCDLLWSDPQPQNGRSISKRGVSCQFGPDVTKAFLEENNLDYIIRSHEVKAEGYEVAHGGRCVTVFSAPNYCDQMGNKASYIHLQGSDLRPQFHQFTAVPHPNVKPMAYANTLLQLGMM
# UniProt P51828: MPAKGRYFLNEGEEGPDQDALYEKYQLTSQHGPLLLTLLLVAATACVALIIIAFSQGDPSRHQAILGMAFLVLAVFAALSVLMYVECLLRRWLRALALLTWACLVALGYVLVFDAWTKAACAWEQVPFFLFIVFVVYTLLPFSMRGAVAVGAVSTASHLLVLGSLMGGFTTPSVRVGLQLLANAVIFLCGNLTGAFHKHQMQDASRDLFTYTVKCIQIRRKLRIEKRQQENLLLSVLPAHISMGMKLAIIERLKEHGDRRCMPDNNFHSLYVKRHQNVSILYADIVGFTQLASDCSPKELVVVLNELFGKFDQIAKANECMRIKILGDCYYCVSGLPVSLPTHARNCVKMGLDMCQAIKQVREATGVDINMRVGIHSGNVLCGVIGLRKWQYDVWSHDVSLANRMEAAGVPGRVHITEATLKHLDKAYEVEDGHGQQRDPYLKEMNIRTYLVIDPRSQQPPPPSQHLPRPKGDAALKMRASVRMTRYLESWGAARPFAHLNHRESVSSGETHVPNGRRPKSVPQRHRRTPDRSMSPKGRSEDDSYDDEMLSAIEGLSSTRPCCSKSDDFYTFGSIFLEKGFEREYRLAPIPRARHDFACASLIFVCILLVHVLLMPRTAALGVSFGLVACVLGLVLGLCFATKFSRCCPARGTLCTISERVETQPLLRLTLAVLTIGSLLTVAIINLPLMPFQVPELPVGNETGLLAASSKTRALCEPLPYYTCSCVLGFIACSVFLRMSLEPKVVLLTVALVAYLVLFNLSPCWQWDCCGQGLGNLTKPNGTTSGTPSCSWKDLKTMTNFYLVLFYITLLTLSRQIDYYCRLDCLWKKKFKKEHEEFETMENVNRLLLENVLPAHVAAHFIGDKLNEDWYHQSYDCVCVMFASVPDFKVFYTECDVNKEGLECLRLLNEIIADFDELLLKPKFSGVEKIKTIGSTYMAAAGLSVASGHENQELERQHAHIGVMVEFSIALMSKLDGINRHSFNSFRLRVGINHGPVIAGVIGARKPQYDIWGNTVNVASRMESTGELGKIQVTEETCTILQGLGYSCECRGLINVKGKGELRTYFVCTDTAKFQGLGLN
# UniProt P42695: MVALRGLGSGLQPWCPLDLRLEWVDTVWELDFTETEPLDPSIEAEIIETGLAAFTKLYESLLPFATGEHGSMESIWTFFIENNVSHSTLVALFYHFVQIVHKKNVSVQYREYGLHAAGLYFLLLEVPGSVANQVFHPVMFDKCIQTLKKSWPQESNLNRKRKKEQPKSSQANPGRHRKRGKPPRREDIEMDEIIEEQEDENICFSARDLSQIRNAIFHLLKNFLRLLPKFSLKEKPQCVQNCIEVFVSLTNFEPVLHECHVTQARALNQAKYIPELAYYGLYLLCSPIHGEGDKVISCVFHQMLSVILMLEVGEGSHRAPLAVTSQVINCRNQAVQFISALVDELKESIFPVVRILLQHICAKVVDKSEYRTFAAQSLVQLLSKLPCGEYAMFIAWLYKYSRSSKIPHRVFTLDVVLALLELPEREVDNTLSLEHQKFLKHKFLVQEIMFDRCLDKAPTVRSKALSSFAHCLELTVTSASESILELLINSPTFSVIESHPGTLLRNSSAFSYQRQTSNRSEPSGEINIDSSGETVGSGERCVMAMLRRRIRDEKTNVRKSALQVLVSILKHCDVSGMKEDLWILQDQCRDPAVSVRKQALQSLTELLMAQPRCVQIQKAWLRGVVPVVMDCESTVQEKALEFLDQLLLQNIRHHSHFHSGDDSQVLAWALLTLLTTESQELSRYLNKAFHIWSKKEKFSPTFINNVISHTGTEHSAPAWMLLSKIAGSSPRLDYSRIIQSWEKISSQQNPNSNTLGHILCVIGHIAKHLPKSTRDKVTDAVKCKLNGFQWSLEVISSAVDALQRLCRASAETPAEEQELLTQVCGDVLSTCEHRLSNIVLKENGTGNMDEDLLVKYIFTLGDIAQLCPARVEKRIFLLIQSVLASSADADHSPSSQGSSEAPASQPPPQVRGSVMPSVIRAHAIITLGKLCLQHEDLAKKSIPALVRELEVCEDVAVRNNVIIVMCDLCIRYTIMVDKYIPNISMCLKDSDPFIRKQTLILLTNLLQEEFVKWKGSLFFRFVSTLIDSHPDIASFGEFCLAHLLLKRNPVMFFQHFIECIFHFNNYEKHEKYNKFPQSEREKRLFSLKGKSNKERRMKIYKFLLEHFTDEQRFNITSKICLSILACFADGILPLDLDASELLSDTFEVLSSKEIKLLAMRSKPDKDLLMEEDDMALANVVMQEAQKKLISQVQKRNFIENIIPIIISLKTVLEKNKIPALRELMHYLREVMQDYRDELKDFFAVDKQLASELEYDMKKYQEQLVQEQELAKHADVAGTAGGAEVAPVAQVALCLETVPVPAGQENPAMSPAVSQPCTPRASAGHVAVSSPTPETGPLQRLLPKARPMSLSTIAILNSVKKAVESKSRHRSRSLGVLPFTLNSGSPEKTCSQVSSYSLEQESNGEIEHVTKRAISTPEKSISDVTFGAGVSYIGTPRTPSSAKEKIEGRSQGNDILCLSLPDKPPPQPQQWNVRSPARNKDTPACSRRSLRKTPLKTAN
# Compound: Nc1ncnc2c1ncn2[C@@H]1O[C@H](COP(=O)(O)OP(=O)(O)NP(=O)(O)O)[C@@H](O)[C@H]1O [adenylyl imidodiphosphate]
# Assay: NP40-soluble protein abundance relative to vehicle (solubility fold change) (ratio); higher = more soluble protein in presence of AMP-PNP
# How it was run: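 Crude Jurkat lysate, prepared by Dounce homogenisation, was exposed to eight concentrations from 0.1 to 10 mM for 10 min at room temperature and then 3 min at 37 °C. Solubilisation used 0.8% NP40 with benzonase for 60 min at 4 °C, followed by ultracentrifugation and TMT labelling of the supernatant for LC-MS/MS. After vsn normalisation of intensities, each value is the fold change against the detergent-processed vehicle within each replicate, across three independent experiments.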
Target,NP40-soluble protein abundance (concentration: 1mM),NP40-soluble protein abundance (concentration: 2mM),NP40-soluble protein abundance (concentration: 4mM),NP40-soluble protein abundance (concentration: 6mM),NP40-soluble protein abundance (concentration: 8mM),NP40-soluble protein abundance (concentration: 10mM)
UniProt P52564,1.03 ± 0.06,1.01 ± 0.035,1.02 ± 0.037,0.971 ± 0.011,0.951 ± 0.036,0.936 ± 0.045
MAGEA9 (UniProt P43362),0.9861 ± 0.0097,0.978 ± 0.015,0.9773 ± 0.0039,0.979 ± 0.038,0.977 ± 0.053,0.9402 ± 0.0088
UniProt P50750 and related entries,1.05 ± 0.036,1.15 ± 0.089,1.14 ± 0.079,1.22 ± 0.068,1.27 ± 0.11,1.32 ± 0.13
DRG2 (UniProt P55039),1 ± 0.02,0.933 ± 0.073,1.01 ± 0.019,0.981 ± 0.027,1.01 ± 0.028,0.987 ± 0.02
UniProt P40855 and related entries,1.04 ± 0.061,1.09 ± 0.1,1.04 ± 0.03,0.961 ± 0.077,0.901 ± 0.027,0.976 ± 0.067
MCM2 (UniProt P49736),0.936 ± 0.014,0.874 ± 0.11,0.904 ± 0.038,0.908 ± 0.031,0.908 ± 0.032,0.877 ± 0.061
UniProt P48739 and related entries,0.971 ± 0.022,0.927 ± 0.087,0.95 ± 0.035,0.978 ± 0.04,0.98 ± 0.04,0.974 ± 0.052
SLC16A1 (UniProt P53985),1.02 ± 0.027,1.04 ± 0.032,1.02 ± 0.039,0.986 ± 0.061,0.939 ± 0.018,0.984 ± 0.072
UniProt P53396 and related entries,0.9442 ± 0.0094,0.854 ± 0.1,0.916 ± 0.042,0.923 ± 0.022,0.946 ± 0.04,0.895 ± 0.073
CENPF (UniProt P49454),1.06 ± 0.03,1.11 ± 0.049,1.11 ± 0.014,1.08 ± 0.051,1.05 ± 0.024,1.085 ± 0.0087
COPB1 (UniProt P53618),0.947 ± 0.022,0.897 ± 0.072,0.945 ± 0.035,0.934 ± 0.0042,0.947 ± 0.017,0.904 ± 0.055
UniProt P54277 and related entries,1.06 ± 0.013,1.07 ± 0.038,1.089 ± 0.0092,1.03 ± 0.046,1.05 ± 0.012,1.07 ± 0.026
LMAN1 (UniProt P49257),0.982 ± 0.03,0.945 ± 0.052,0.94 ± 0.034,0.93 ± 0.019,0.9238 ± 0.0074,0.888 ± 0.032
UniProt P51790 and related entries,0.9919 ± 0.0049,0.953 ± 0.033,0.9789 ± 0.0064,1 ± 0.051,1.042 ± 0.0058,1.02 ± 0.048
UniProt P55072,0.961 ± 0.032,0.945 ± 0.037,0.946 ± 0.048,0.973 ± 0.041,0.95 ± 0.018,0.95 ± 0.063
UniProt P41743,0.989 ± 0.016,0.94 ± 0.099,0.98 ± 0.034,0.94 ± 0.022,0.965 ± 0.038,0.935 ± 0.051
CBX5 (UniProt P45973),1.08 ± 0.025,1.18 ± 0.085,1.18 ± 0.037,1.21 ± 0.056,1.24 ± 0.054,1.32 ± 0.03
STAT5B (UniProt P51692),0.992 ± 0.019,1.02 ± 0.011,0.988 ± 0.014,0.9707 ± 0.0088,0.9504 ± 0.0035,0.941 ± 0.017
UBA7 (UniProt P41226),0.99 ± 0.016,0.959 ± 0.056,0.99 ± 0.037,0.9962 ± 0.0098,0.976 ± 0.038,0.96 ± 0.041
RABGGTB (UniProt P53611),0.958 ± 0.016,0.924 ± 0.047,0.974 ± 0.05,0.979 ± 0.04,0.994 ± 0.034,0.949 ± 0.028

Target,NP40-soluble protein abundance (concentration: 1mM),NP40-soluble protein abundance (concentration: 2mM),NP40-soluble protein abundance (concentration: 4mM),NP40-soluble protein abundance (concentration: 6mM),NP40-soluble protein abundance (concentration: 8mM),NP40-soluble protein abundance (concentration: 10mM)
UniProt P49796 and related entries,0.983 ± 0.021,0.997 ± 0.049,0.972 ± 0.017,0.99 ± 0.026,0.997 ± 0.015,0.969 ± 0.05
NUP153 (UniProt P49790),1.03 ± 0.024,1.09 ± 0.055,1.06 ± 0.018,1.09 ± 0.048,1.09 ± 0.05,1.17 ± 0.018
UniProt P51948 and related entries,1.003 ± 0.0072,1.03 ± 0.021,0.987 ± 0.029,1.04 ± 0.036,0.998 ± 0.028,0.9916 ± 0.0053
UniProt P45983-3|P45983-2,1.06 ± 0.028,1.04 ± 0.044,1.06 ± 0.035,1 ± 0.049,1.03 ± 0.031,1 ± 0.029
LRPPRC (UniProt P42704),0.945 ± 0.013,0.883 ± 0.068,0.941 ± 0.022,0.919 ± 0.016,0.9504 ± 0.0022,0.8966 ± 0.0071
UniProt P51797 and related entries,1.02 ± 0.025,1.05 ± 0.033,1.02 ± 0.016,1 ± 0.014,0.986 ± 0.031,1.02 ± 0.027
UniProt P46734 and related entries,1.08 ± 0.065,1.13 ± 0.029,1.09 ± 0.049,1.06 ± 0.082,1.03 ± 0.11,1.06 ± 0.077
RAD23B (UniProt P54727),0.956 ± 0.049,1.01 ± 0.072,0.91 ± 0.032,0.896 ± 0.027,0.863 ± 0.039,0.882 ± 0.051
RPIA (UniProt P49247),1.01 ± 0.053,0.972 ± 0.017,1.01 ± 0.032,1.05 ± 0.031,1.07 ± 0.035,1.044 ± 0.0066
SLC19A1 (UniProt P41440),1.03 ± 0.031,1.02 ± 0.034,1.01 ± 0.03,0.987 ± 0.035,1.04 ± 0.022,1 ± 0.042
DUSP3 (UniProt P51452),0.982 ± 0.039,0.981 ± 0.039,0.999 ± 0.028,1.02 ± 0.079,1.01 ± 0.015,1.02 ± 0.04
KPNA2 (UniProt P52292),1 ± 0.02,1.008 ± 0.0099,1.03 ± 0.033,1.01 ± 0.021,1.01 ± 0.031,1.05 ± 0.048
PPP5C (UniProt P53041),0.956 ± 0.032,0.93 ± 0.033,0.947 ± 0.013,0.996 ± 0.05,1.01 ± 0.045,0.977 ± 0.015
CAPZA1 (UniProt P52907),0.9903 ± 0.0052,0.972 ± 0.02,0.984 ± 0.024,1.002 ± 0.0036,0.992 ± 0.016,1 ± 0.017
UniProt P46934-4|H0Y9L1,0.981 ± 0.018,0.918 ± 0.038,0.989 ± 0.01,0.966 ± 0.04,1 ± 0.034,0.976 ± 0.063
UniProt P47813,1.02 ± 0.043,1.08 ± 0.079,1.06 ± 0.08,1.22 ± 0.081,1.29 ± 0.083,1.33 ± 0.12
UniProt P46976 and related entries,1 ± 0.058,1.04 ± 0.073,1 ± 0.068,1.01 ± 0.063,1 ± 0.06,1.04 ± 0.12
RPL5 (UniProt P46777),1 ± 0.04,0.987 ± 0.032,0.955 ± 0.057,0.953 ± 0.068,0.898 ± 0.064,0.973 ± 0.13
EMD (UniProt P50402),0.968 ± 0.023,0.989 ± 0.018,0.985 ± 0.05,0.971 ± 0.048,0.982 ± 0.072,0.967 ± 0.061
PMS2 (UniProt P54278),1.11 ± 0.056,1.16 ± 0.084,1.14 ± 0.062,1.13 ± 0.11,1.13 ± 0.091,1.13 ± 0.091

Target,NP40-soluble protein abundance (concentration: 1mM),NP40-soluble protein abundance (concentration: 2mM),NP40-soluble protein abundance (concentration: 4mM),NP40-soluble protein abundance (concentration: 6mM),NP40-soluble protein abundance (concentration: 8mM),NP40-soluble protein abundance (concentration: 10mM)
GALK1 (UniProt P51570),1 ± 0.032,0.985 ± 0.037,1.04 ± 0.017,1 ± 0.019,1.03 ± 0.011,1.03 ± 0.025
DAP3 (UniProt P51398),1.01 ± 0.084,0.998 ± 0.092,1.01 ± 0.12,0.972 ± 0.11,0.982 ± 0.082,0.997 ± 0.12
UniProt P55265 and related entries,1.04 ± 0.058,1.03 ± 0.055,1.05 ± 0.062,1.09 ± 0.066,1.08 ± 0.062,1.09 ± 0.096
UniProt P48454 and related entries,1.02 ± 0.027,1.01 ± 0.014,1.01 ± 0.045,0.984 ± 0.025,0.976 ± 0.038,0.967 ± 0.046
CTCF (UniProt P49711),1 ± 0.051,1 ± 0.047,1.02 ± 0.046,0.99 ± 0.061,0.99 ± 0.031,1.01 ± 0.036
UniProt P43155 and related entries,0.974 ± 0.057,0.965 ± 0.011,1 ± 0.032,1.01 ± 0.086,1.01 ± 0.061,1.01 ± 0.077
UniProt P49589 and related entries,1 ± 0.018,0.972 ± 0.036,0.957 ± 0.03,0.949 ± 0.013,0.9488 ± 0.0077,0.929 ± 0.04
PPOX (UniProt P50336),0.9241 ± 0.0018,0.853 ± 0.12,0.9404 ± 0.0044,0.9541 ± 0.0089,0.981 ± 0.028,0.953 ± 0.033
UniProt P47756-2,1.02 ± 0.02,1.05 ± 0.014,1 ± 0.027,1 ± 0.035,0.975 ± 0.026,1.01 ± 0.043
MFAP1 (UniProt P55081),1.06 ± 0.032,1.08 ± 0.11,1.03 ± 0.045,1.09 ± 0.028,1.05 ± 0.054,1.07 ± 0.045
EPS15 (UniProt P42566),1.03 ± 0.032,1.06 ± 0.032,1.04 ± 0.063,0.992 ± 0.044,0.962 ± 0.057,0.962 ± 0.039
PPT1 (UniProt P50897),1.01 ± 0.04,1.05 ± 0.13,1 ± 0.075,1.07 ± 0.074,1.04 ± 0.071,1.01 ± 0.073
THOP1 (UniProt P52888),0.938 ± 0.036,0.884 ± 0.095,0.924 ± 0.021,0.944 ± 0.034,0.942 ± 0.041,0.921 ± 0.028
POLR2K (UniProt P53803),1.03 ± 0.012,1.05 ± 0.069,1.08 ± 0.013,1.05 ± 0.027,1.12 ± 0.041,1.19 ± 0.031
UniProt P49588 and related entries,1.01 ± 0.013,0.976 ± 0.05,0.967 ± 0.041,0.979 ± 0.013,0.954 ± 0.03,0.952 ± 0.05
FASN (UniProt P49327),0.959 ± 0.021,0.874 ± 0.091,0.941 ± 0.026,0.913 ± 0.026,0.917 ± 0.035,0.896 ± 0.036
SUCLG1 (UniProt P53597),0.9736 ± 0.0091,0.984 ± 0.033,0.9687 ± 0.0086,1.03 ± 0.065,1.02 ± 0.067,1.03 ± 0.026
ADCY7 (UniProt P51828),1.009 ± 0.0081,1.01 ± 0.022,0.964 ± 0.043,0.992 ± 0.016,0.98 ± 0.011,0.981 ± 0.032
NCAPD3 (UniProt P42695),0.993 ± 0.023,0.977 ± 0.058,0.988 ± 0.031,0.936 ± 0.045,0.928 ± 0.015,0.96 ± 0.038
RPL34 (UniProt P49207),1.03 ± 0.011,1.01 ± 0.03,0.978 ± 0.019,0.922 ± 0.011,0.749 ± 0.04,0.995 ± 0.016
